Data as given in PubChem BioAssay AID1259327 (Drosophila RNAi Screening Center, 2017).

Aim: 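Knock-downs altering cellular ATP with no metal added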
Cell system: Drosophila S2R+ cells
Reagents: long dsRNA against Drosophila genes
Timing: 5 days (water added on day 4, read one day later)
Conditions: water added as vehicle, no metal, one day before read-out
Detection: 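Luciferase ATP signal per well, normalised to plate mean, duplicate average converted to z-score across plates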
Reading the numbers: ATP z-score: higher = more total ATP than typical wells; ATP luminescence: higher = more total ATP
Rule for the call: 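a hit is any knock-down whose absolute ATP z-score is greater than 1.5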
Calls: active = hit: ATP up or down; inactive = no clear ATP change
Here is an unselected part of about 3,100 deposited reagents. In the full data, 378 (12%) got an active call. 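Hits include both directions; z-score sign shows ATP rise or fall; raw luminescence values are not plate-normalised.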 Unmarked entries are inactive. A plus sign joins genes that one reagent is predicted to hit. The record does not give: the amount of reagent.

{"gene": "Oatp30B", "amplicon": "DRSC02727", "ATP z-score, duplicate mean": 0.267, "ATP luminescence, replicate 1 (RLU)": 5.05e5, "ATP luminescence, replicate 2 (RLU)": 4.90e5}
{"gene": "Oatp30B", "amplicon": "DRSC39872", "ATP z-score, duplicate mean": -0.764, "ATP luminescence, replicate 1 (RLU)": 5.18e5, "ATP luminescence, replicate 2 (RLU)": 5.20e5}
{"gene": "CG17991", "amplicon": "DRSC15294", "ATP z-score, duplicate mean": "2.48 (active)", "ATP luminescence, replicate 1 (RLU)": 7.30e5, "ATP luminescence, replicate 2 (RLU)": 7.96e5}
{"gene": "CG4324", "amplicon": "DRSC04462", "ATP z-score, duplicate mean": -0.978, "ATP luminescence, replicate 1 (RLU)": 6.67e5, "ATP luminescence, replicate 2 (RLU)": 5.78e5}
{"gene": "CG4324", "amplicon": "DRSC27530", "ATP z-score, duplicate mean": -0.524, "ATP luminescence, replicate 1 (RLU)": 8.60e5, "ATP luminescence, replicate 2 (RLU)": 1.01e6}
{"gene": "dy", "amplicon": "DRSC20325", "ATP z-score, duplicate mean": -0.332, "ATP luminescence, replicate 1 (RLU)": 8.24e5, "ATP luminescence, replicate 2 (RLU)": 7.73e5}
{"gene": "dy", "amplicon": "DRSC25539", "ATP z-score, duplicate mean": 0.15, "ATP luminescence, replicate 1 (RLU)": 8.49e5, "ATP luminescence, replicate 2 (RLU)": 8.89e5}
{"gene": "Aplip1", "amplicon": "DRSC21587", "ATP z-score, duplicate mean": 0.609, "ATP luminescence, replicate 1 (RLU)": 6.32e5, "ATP luminescence, replicate 2 (RLU)": 6.30e5}
{"gene": "Aplip1", "amplicon": "DRSC26312", "ATP z-score, duplicate mean": 0.818, "ATP luminescence, replicate 1 (RLU)": 9.03e5, "ATP luminescence, replicate 2 (RLU)": 1.00e6}
{"gene": "CG33281", "amplicon": "DRSC00421", "ATP z-score, duplicate mean": -0.243, "ATP luminescence, replicate 1 (RLU)": 6.90e5, "ATP luminescence, replicate 2 (RLU)": 6.72e5}

Reprinted from the entries so far (2 entries):
{"gene": "Oatp30B", "amplicon": "DRSC39872", "ATP z-score, duplicate mean": -0.764, "ATP luminescence, replicate 1 (RLU)": 5.18e5, "ATP luminescence, replicate 2 (RLU)": 5.20e5}
{"gene": "CG17991", "amplicon": "DRSC15294", "ATP z-score, duplicate mean": "2.48 (active)", "ATP luminescence, replicate 1 (RLU)": 7.30e5, "ATP luminescence, replicate 2 (RLU)": 7.96e5}

Further entries:
{"gene": "Tomosyn", "amplicon": "DRSC19842", "ATP z-score, duplicate mean": "1.64 (active)", "ATP luminescence, replicate 1 (RLU)": 7.82e5, "ATP luminescence, replicate 2 (RLU)": 8.29e5}
{"gene": "Tomosyn", "amplicon": "DRSC25047", "ATP z-score, duplicate mean": 0.319, "ATP luminescence, replicate 1 (RLU)": 8.79e5, "ATP luminescence, replicate 2 (RLU)": 9.00e5}
{"gene": "prom", "amplicon": "DRSC22088", "ATP z-score, duplicate mean": 1.49, "ATP luminescence, replicate 1 (RLU)": 7.08e5, "ATP luminescence, replicate 2 (RLU)": 7.04e5}
{"gene": "prom", "amplicon": "DRSC26828", "ATP z-score, duplicate mean": 0.924, "ATP luminescence, replicate 1 (RLU)": 9.16e5, "ATP luminescence, replicate 2 (RLU)": 9.81e5}
{"gene": "prom", "amplicon": "DRSC27557", "ATP z-score, duplicate mean": 0.114, "ATP luminescence, replicate 1 (RLU)": 8.35e5, "ATP luminescence, replicate 2 (RLU)": 1.24e6}
{"gene": "prom", "amplicon": "DRSC39649", "ATP z-score, duplicate mean": -1.49, "ATP luminescence, replicate 1 (RLU)": 3.83e5, "ATP luminescence, replicate 2 (RLU)": 3.45e5}
{"gene": "CG30048", "amplicon": "DRSC22205", "ATP z-score, duplicate mean": -0.793, "ATP luminescence, replicate 1 (RLU)": 4.85e5, "ATP luminescence, replicate 2 (RLU)": 5.40e5}
{"gene": "CG30048", "amplicon": "DRSC39886", "ATP z-score, duplicate mean": "3.47 (active)", "ATP luminescence, replicate 1 (RLU)": 9.40e5, "ATP luminescence, replicate 2 (RLU)": 8.14e5}
{"gene": "sina + Rh4", "amplicon": "DRSC11396", "ATP z-score, duplicate mean": -0.311, "ATP luminescence, replicate 1 (RLU)": 7.02e5, "ATP luminescence, replicate 2 (RLU)": 6.93e5}
{"gene": "Or85b", "amplicon": "DRSC16765", "ATP z-score, duplicate mean": 0.519, "ATP luminescence, replicate 1 (RLU)": 3.04e5, "ATP luminescence, replicate 2 (RLU)": 8.64e5}
{"gene": "Or85b", "amplicon": "DRSC39611", "ATP z-score, duplicate mean": -0.122, "ATP luminescence, replicate 1 (RLU)": 4.61e5, "ATP luminescence, replicate 2 (RLU)": 4.52e5}
{"gene": "nAChRalpha4", "amplicon": "DRSC11925", "ATP z-score, duplicate mean": -0.73, "ATP luminescence, replicate 1 (RLU)": 8.70e5, "ATP luminescence, replicate 2 (RLU)": 7.78e5}
{"gene": "nAChRalpha4", "amplicon": "DRSC26817", "ATP z-score, duplicate mean": -1.4, "ATP luminescence, replicate 1 (RLU)": 9.27e5, "ATP luminescence, replicate 2 (RLU)": 1.05e6}
{"gene": "nAChRalpha2", "amplicon": "DRSC17009", "ATP z-score, duplicate mean": 0.00163, "ATP luminescence, replicate 1 (RLU)": 7.26e5, "ATP luminescence, replicate 2 (RLU)": 6.86e5}
{"gene": "nAChRalpha2", "amplicon": "DRSC24487", "ATP z-score, duplicate mean": -0.343, "ATP luminescence, replicate 1 (RLU)": 8.17e5, "ATP luminescence, replicate 2 (RLU)": 7.99e5}
